In data set [1] the target is HSF4b lop11 (Mus musculus (lop11)) (UniProt Q9R0L1). The experiment in a line: EMSA. The conditions noted are these: Promega Gel Shift Assay System buffer (composition not given); 20 min at RT; 4% acrylamide gel (40:1) in 1x TAE at RT, 250 V, 1 h; protein in a lysate after overexpression; protein details: N-terminal His (pcDNA4/HisMax TOPO); label: 32P (gamma-32P ATP labeling). On the technique in general: A gel shift assay detects complexes by their altered migration in electrophoresis.

In data set [2] the target is T1, HSF4b wild type (Mus musculus) (UniProt Q9R0L1).
T1 sequence (looked up): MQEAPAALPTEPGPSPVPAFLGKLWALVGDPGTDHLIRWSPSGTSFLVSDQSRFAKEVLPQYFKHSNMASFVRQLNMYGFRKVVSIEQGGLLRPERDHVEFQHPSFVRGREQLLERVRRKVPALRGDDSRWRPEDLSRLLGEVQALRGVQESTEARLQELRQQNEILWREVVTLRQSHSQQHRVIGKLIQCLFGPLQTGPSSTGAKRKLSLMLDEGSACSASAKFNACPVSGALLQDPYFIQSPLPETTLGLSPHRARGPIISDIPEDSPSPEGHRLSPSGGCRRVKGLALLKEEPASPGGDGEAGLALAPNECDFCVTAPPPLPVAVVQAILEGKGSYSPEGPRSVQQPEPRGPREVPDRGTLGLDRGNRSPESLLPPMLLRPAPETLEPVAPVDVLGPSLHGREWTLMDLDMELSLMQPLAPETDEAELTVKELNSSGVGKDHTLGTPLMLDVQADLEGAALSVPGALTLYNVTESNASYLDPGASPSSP
As to the kind of experiment: EMSA. Conditions: supershift with anti-His, competed by cold HSE; Promega Gel Shift Assay System buffer (composition not given); 20 min at RT; 4% acrylamide gel (40:1) in 1x TAE at RT, 250 V, 1 h; protein in a lysate after overexpression; residues 1-492; protein details: N-terminal His (pcDNA4/HisMax TOPO); label: 32P (gamma-32P ATP labeling).

This note sets out measurements from publication PMC3233385.

Construct, isoform or probe ends are uncertain for at least one entry. Results from cells or extracts need not show a direct contact. For some assays here: Negatives hold for the conditions tested. For some assays here: Tags and fusion partners may be left off the protein sequences shown.

Turning to “TGACCTCACCATTCCAGAAGCTTCAGAAGA (double strand) [HSE oligo (alphaB-crystallin promoter)]”, the binding result in data set [1] was “no binding”; in data set [2], “binds”.
